The data set has as its target T1, Flag-RIG-I (UniProt O95786).
T1 sequence (looked up, limits assumed): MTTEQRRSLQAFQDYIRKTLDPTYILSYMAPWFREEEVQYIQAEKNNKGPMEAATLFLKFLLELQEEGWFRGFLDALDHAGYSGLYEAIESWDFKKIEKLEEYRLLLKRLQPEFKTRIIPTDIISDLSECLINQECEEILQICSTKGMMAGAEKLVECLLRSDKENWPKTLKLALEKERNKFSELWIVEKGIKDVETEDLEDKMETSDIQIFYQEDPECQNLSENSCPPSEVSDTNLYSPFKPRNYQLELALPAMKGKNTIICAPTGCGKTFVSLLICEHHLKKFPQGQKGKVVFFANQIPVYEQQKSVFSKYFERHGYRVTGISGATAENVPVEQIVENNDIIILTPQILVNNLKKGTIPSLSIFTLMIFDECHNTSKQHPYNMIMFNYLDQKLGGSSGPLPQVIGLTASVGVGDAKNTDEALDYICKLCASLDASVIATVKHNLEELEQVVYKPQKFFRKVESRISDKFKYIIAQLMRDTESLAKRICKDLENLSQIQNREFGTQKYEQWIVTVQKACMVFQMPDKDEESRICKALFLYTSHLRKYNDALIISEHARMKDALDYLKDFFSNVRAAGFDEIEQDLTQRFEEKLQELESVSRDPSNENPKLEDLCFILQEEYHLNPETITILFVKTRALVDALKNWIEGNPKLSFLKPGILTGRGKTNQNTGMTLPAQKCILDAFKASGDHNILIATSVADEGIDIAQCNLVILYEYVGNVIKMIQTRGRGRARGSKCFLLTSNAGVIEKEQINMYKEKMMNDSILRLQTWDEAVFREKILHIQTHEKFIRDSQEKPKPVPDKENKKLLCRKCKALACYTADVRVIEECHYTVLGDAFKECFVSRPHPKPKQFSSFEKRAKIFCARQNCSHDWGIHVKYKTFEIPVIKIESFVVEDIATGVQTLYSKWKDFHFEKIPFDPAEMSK
Kind of data set: pull-down (anti-Flag IP of transfected RNA, RT-PCR). The conditions noted are these: RNA transfected in Huh7.5 cells, harvest 6 h; 5'-triphosphate; SEC-MALLS: 37 mM RIG-I, 2 mM ATP analogue, S200 column; protein in a lysate after overexpression; protein details: Flag.

For at least one entry, the source does not settle the construct or the ends of the probe. Where cells or extracts were used, other partners may take part. Where a protein sequence is shown, tags need not be part of it.

“GGACCAAACAAAGUUGGGUAAGGAUAGAUCAAUCAAUGAUCAUAUUCUAGUACACUUGAAUUC [Measles leader 5'ppp-RNA (MeV-L)]”: the binding result is on record as “binds”.

For the origin of these results see PMC4178188, “RIG-I Self-Oligomerization Is Either Dispensable or Very Transient for Signal Transduction”.
